± gives the standard deviation of the averaged measurements. This is a selection; strong and weak results do not stand in their true shares.
Experiments:
Assay in all cases: NP40-soluble protein abundance relative to vehicle (solubility fold change) (ratio); higher = more soluble protein in presence of AMP-PNP
ARL8A = molecular target: T1, ARL8A (UniProt Q96BM9)
T1 sequence (whole entry): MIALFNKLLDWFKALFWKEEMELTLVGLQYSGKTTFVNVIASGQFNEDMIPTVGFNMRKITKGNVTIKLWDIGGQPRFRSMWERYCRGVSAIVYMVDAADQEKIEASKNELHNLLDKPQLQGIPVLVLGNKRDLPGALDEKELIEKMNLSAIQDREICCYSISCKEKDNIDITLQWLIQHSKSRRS
How it was run: (§1)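 Eight concentrations, 0.1 to 10 mM, were tested on Jurkat crude lysate for 10 min at room temperature and then 3 min at 37 °C, in three independent experiments. The lysate was solubilised with 0.8% NP40 and benzonase, ultracentrifuged, and the supernatant TMT-labelled for LC-MS/MS. Each value is the fold change against the detergent-processed vehicle in its own replicate, from vsn-normalised intensities.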

ATXN7L3B = molecular target: T2, ATXN7L3B (UniProt Q96GX2)
T2 sequence (whole entry): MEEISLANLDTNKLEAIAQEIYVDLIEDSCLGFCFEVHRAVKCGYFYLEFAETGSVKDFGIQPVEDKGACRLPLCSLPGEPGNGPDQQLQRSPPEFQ
How it was run: as §1

DDRGK1 = molecular target: T3, DDRGK1 (UniProt Q96HY6)
T3 sequence (whole entry): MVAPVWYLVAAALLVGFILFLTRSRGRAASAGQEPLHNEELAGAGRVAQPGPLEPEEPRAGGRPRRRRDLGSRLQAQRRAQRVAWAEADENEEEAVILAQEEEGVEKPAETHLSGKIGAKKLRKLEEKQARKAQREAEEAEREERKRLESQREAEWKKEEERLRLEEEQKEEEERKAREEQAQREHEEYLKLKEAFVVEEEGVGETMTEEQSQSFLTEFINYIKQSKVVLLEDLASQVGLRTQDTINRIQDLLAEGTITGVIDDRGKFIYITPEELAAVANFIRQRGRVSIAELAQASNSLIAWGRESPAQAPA
How it was run: as §1

DNAJC1 = molecular target: T4, DNAJC1 (UniProt Q96KC8)
T4 sequence (whole entry): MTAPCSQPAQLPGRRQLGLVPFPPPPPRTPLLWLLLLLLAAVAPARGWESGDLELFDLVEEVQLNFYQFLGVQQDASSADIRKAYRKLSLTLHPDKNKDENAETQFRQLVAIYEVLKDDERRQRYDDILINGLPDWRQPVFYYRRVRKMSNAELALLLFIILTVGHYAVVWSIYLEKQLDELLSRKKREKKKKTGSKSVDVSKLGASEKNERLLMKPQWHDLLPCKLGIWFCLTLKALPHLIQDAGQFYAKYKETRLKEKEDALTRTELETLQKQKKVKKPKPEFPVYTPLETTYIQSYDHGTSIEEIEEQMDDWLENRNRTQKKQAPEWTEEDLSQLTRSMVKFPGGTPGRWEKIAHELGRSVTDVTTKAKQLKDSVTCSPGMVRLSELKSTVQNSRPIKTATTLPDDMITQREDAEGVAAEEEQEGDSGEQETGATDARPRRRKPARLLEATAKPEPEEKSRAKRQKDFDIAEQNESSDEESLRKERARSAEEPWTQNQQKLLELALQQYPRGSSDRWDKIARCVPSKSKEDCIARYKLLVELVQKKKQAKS
How it was run: as §1

ISOC1 = molecular target: T5, ISOC1 (UniProt Q96CN7)
T5 sequence (whole entry): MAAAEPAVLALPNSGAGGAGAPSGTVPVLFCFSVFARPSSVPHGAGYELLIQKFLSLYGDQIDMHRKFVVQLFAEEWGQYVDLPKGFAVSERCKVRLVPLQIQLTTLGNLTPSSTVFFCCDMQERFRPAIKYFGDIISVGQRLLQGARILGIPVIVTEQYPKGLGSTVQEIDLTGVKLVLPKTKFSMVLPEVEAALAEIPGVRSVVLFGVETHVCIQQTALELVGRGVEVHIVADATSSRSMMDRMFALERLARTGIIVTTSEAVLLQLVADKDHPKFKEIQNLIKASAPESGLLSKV
How it was run: as §1

Structure (SMILES): Nc1ncnc2c1ncn2[C@@H]1O[C@H](COP(=O)(O)OP(=O)(O)NP(=O)(O)O)[C@@H](O)[C@H]1O [adenylyl imidodiphosphate]
- NP40-soluble protein abundance (ARL8A; concentration: 1mM): 0.958 ± 0.019
- NP40-soluble protein abundance (ARL8A; concentration: 2mM): 0.928 ± 0.04
- NP40-soluble protein abundance (ARL8A; concentration: 4mM): 0.9093 ± 0.0026
- NP40-soluble protein abundance (ARL8A; concentration: 6mM): 0.933 ± 0.046
- NP40-soluble protein abundance (ARL8A; concentration: 8mM): 0.917 ± 0.018
- NP40-soluble protein abundance (ARL8A; concentration: 10mM): 0.932 ± 0.018
- NP40-soluble protein abundance (ATXN7L3B; concentration: 1mM): 1 ± 0.013
- NP40-soluble protein abundance (ATXN7L3B; concentration: 2mM): 1 ± 0.03
- NP40-soluble protein abundance (ATXN7L3B; concentration: 4mM): 0.951 ± 0.03
- NP40-soluble protein abundance (ATXN7L3B; concentration: 6mM): 0.959 ± 0.02
- NP40-soluble protein abundance (ATXN7L3B; concentration: 8mM): 0.945 ± 0.034
- NP40-soluble protein abundance (ATXN7L3B; concentration: 10mM): 0.935 ± 0.05
- NP40-soluble protein abundance (DDRGK1; concentration: 1mM): 1.08 ± 0.082
- NP40-soluble protein abundance (DDRGK1; concentration: 2mM): 1.17 ± 0.071
- NP40-soluble protein abundance (DDRGK1; concentration: 4mM): 1.13 ± 0.13
- NP40-soluble protein abundance (DDRGK1; concentration: 6mM): 1.03 ± 0.061
- NP40-soluble protein abundance (DDRGK1; concentration: 8mM): 1.05 ± 0.048
- NP40-soluble protein abundance (DDRGK1; concentration: 10mM): 1.05 ± 0.054
- NP40-soluble protein abundance (DNAJC1; concentration: 1mM): 1 ± 0.017
- NP40-soluble protein abundance (DNAJC1; concentration: 2mM): 1.07 ± 0.095
- NP40-soluble protein abundance (DNAJC1; concentration: 4mM): 0.9831 ± 0.0063
- NP40-soluble protein abundance (DNAJC1; concentration: 6mM): 0.975 ± 0.016
- NP40-soluble protein abundance (DNAJC1; concentration: 8mM): 0.986 ± 0.038
- NP40-soluble protein abundance (DNAJC1; concentration: 10mM): 0.994 ± 0.018
- NP40-soluble protein abundance (ISOC1; concentration: 1mM): 1 ± 0.04
- NP40-soluble protein abundance (ISOC1; concentration: 2mM): 0.939 ± 0.065
- NP40-soluble protein abundance (ISOC1; concentration: 4mM): 0.998 ± 0.024
- NP40-soluble protein abundance (ISOC1; concentration: 6mM): 0.994 ± 0.011
- NP40-soluble protein abundance (ISOC1; concentration: 8mM): 0.9802 ± 0.0032
- NP40-soluble protein abundance (ISOC1; concentration: 10mM): 0.957 ± 0.015

Source: the supplement of paper PMC6411743
